Patent US9526785B2, “Pharmaceuticals for oral delivery” (Enteris BioPharma, Inc., priority 2013, dated 2016)
Values joined by “and” are separate entries in the source; they are usually repeats but may differ in a detail not shown here. Identical values can stand only once. This continues a long series; more values of the same kind are listed elsewhere.

Test: Tigecycline plasma PK and % F after PO enteric-coated capsule in dogs
Format: in vivo, Beagle dogs
Details: SC430, individual dogs
Experimental: Adult beagle dogs weighing approximately 9 to 15 kg were used in the study. […] Room temperature was set to be maintained between approximately 20±5° C. Relative humidity was monitored but not controlled.
TEKLAD™ Certified Canine Diet was provided once daily in amounts (˜400 grams) appropriate for the size and age of the animals. Tap water was available ad libitum via automatic watering device or water bowls.
Oral dosing of enteric-coated capsules was accomplished by administering them to the back of the dog's mouth, followed by a chase of 5 mL water to ensure swallowing.
Water was provided ad libitum. […] Subsequently, each group of animals was dosed based on the protocol, i.e. either IV, or PO by capsule.
Minocycline (VWR international) was used as an internal standard. Sample processing/clean-up of plasma samples was carried out offline by protein precipitation with acidified acetonitrile using 0.5% trifluoroacetic acid (TFA).
The HPLC system consisted of Shimadzu SIL-HTc HPLC system equipped with dual Shimadzu LC-10ADvp isopumps, a Shimadzu CTO-10ASvp column temperature controller and a Shimadzu SPD-10Avp variable wavelength detector. […] Mobile phase A consisted of 23 mM phosphate buffer pH 2.5 with 4 mM 1-octanesulfonic acid, while mobile phase B consisting of 90% acetonitrile, 10% water, with 2 mM 1-octanesulfonic acid. […] The total runtime was 18 minutes per sample. The mobile phase flow rate was 1.2 mL/min. Detection was performed using the SPD-10Avp variable wavelength detector set at 350 nm, with a sensitivity of 0.001 aufs.
The samples were then centrifuged under refrigeration at 13 k rpm for 5 minutes. The supernatant was taken and the liquid removed to dryness under nitrogen in a turbovap. The dried extract was reconstituted in 60 μL of mobile phase A and the suspension was further centrifuged at 5 k rpm for 5 minutes to pellet any insoluble matter. The resulting supernatant was then injected onto the LC.
The unknown concentration in dog plasma samples was determined by interpolation of the peak area ratios of analyte:internal standard versus the ratio of their nominal concentrations into the regression line obtained from calibration standards spiked in pooled dog plasma. No regression weighting was used for the calculations. […] The calibration curve covered the range of 0.05 μg/mL to 5 μg/mL. […]
The capsules were enterically coated using a standard preclinical protocol to 10% weight gain. Two studies were conducted.

With `CN(C)c1cc(NC(=O)CNC(C)(C)C)c(O)c2c1C[C@H]1C[C@H]3[C@H](N(C)C)C(O)=C(C(N)=O)C(=O)[C@@]3(O)C(O)=C1C2=O` [Tigecycline] the “Tigecycline Plasma Concentration” value (Time (min) 1.0, PO 45 mg enteric-coated capsule with 500 mg CA and 100 mg LLC) was 133.63 ng/mL and 127.65 ng/mL and 0.00 ng/mL (2×) and 20.73 ng/mL, the “Tigecycline Plasma Concentration” value (Time (min) 1.3, PO 30 mg enteric-coated capsule with 500 mg CA and 100 mg LLC) was 0.00 ng/mL (3×) and 182.24 ng/mL and 73.60 ng/mL and the “Tigecycline Plasma Concentration” value (Time (min) 1.3, PO 45 mg enteric-coated capsule with 500 mg CA and 100 mg LLC) was 153.06 ng/mL and 78.69 ng/mL and 0.00 ng/mL (2×) and 59.87 ng/mL. For the same compound, the “Tigecycline Plasma Concentration” value (Time (min) 1.7, PO 30 mg enteric-coated capsule with 500 mg CA and 100 mg LLC) was 91.58 ng/mL and 145.17 ng/mL and 33.81 ng/mL and 0.00 ng/mL and 47.35 ng/mL, the “Tigecycline Plasma Concentration” value (Time (min) 1.7, PO 45 mg enteric-coated capsule with 500 mg CA and 100 mg LLC) was 138.33 ng/mL and 46.66 ng/mL and 0.00 ng/mL and 157.62 ng/mL and 163.14 ng/mL and the “Tigecycline Plasma Concentration” value (Time (min) 2.0, PO 30 mg enteric-coated capsule with 500 mg CA and 100 mg LLC) was 66.04 ng/mL and 127.57 ng/mL and 87.39 ng/mL and 53.01 ng/mL. For the same compound, the “Tigecycline Plasma Concentration” value (Time (min) 2.0, PO 45 mg enteric-coated capsule with 500 mg CA and 100 mg LLC) was 116.10 ng/mL and 43.10 ng/mL and 44.20 ng/mL and 149.31 ng/mL and 367.01 ng/mL, the “Tigecycline Plasma Concentration” value (Time (min) 2.3, PO 30 mg enteric-coated capsule with 500 mg CA and 100 mg LLC) was 76.54 ng/mL and 118.71 ng/mL and 120.08 ng/mL and 0.00 ng/mL and 45.11 ng/mL and the “Tigecycline Plasma Concentration” value (Time (min) 2.3, PO 45 mg enteric-coated capsule with 500 mg CA and 100 mg LLC) was 87.32 ng/mL and 39.82 ng/mL and 79.71 ng/mL and 114.76 ng/mL and 216.56 ng/mL. The “Tigecycline Plasma Concentration” value (Time (min) 2.7, PO 30 mg enteric-coated capsule with 500 mg CA and 100 mg LLC) was 55.33 ng/mL and 107.93 ng/mL and 87.68 ng/mL and 0.00 ng/mL and 44.38 ng/mL, the “Tigecycline Plasma Concentration” value (Time (min) 2.7, PO 45 mg enteric-coated capsule with 500 mg CA and 100 mg LLC) was 78.26 ng/mL and 33.22 ng/mL and 79.21 ng/mL and 102.49 ng/mL and 199.64 ng/mL and the “Tigecycline Plasma Concentration” value (Time (min) 3.0, PO 30 mg enteric-coated capsule with 500 mg CA and 100 mg LLC) was 44.24 ng/mL and 96.41 ng/mL and 76.21 ng/mL and 0.00 ng/mL and 32.59 ng/mL. The “Tigecycline Plasma Concentration” value (Time (min) 3.0, PO 45 mg enteric-coated capsule with 500 mg CA and 100 mg LLC) was 74.06 ng/mL and 31.63 ng/mL and 62.12 ng/mL and 98.25 ng/mL and 116.52 ng/mL, the “Tigecycline Plasma Concentration” value (Time (min) 3.3, PO 30 mg enteric-coated capsule with 500 mg CA and 100 mg LLC) was 42.97 ng/mL and 87.87 ng/mL and 48.94 ng/mL and 0.00 ng/mL and 32.16 ng/mL and the “Tigecycline Plasma Concentration” value (Time (min) 3.3, PO 45 mg enteric-coated capsule with 500 mg CA and 100 mg LLC) was 69.50 ng/mL and 33.98 ng/mL and 49.17 ng/mL and 63.91 ng/mL and 126.80 ng/mL. For the same compound, the “Tigecycline Plasma Concentration” value (Time (min) 3.7, PO 30 mg enteric-coated capsule with 500 mg CA and 100 mg LLC) was 71.18 ng/mL and 50.58 ng/mL and 0.00 ng/mL, the “Tigecycline Plasma Concentration” value (Time (min) 3.7, PO 45 mg enteric-coated capsule with 500 mg CA and 100 mg LLC) was 62.36 ng/mL and 33.14 ng/mL and 38.96 ng/mL and 55.89 ng/mL and 119.77 ng/mL and the “Tigecycline Plasma Concentration” value (Time (min) 4.0, PO 30 mg enteric-coated capsule with 500 mg CA and 100 mg LLC) was 33.78 ng/mL and 65.95 ng/mL and 48.33 ng/mL and 0.00 ng/mL and 35.01 ng/mL. For the same compound, the “Tigecycline Plasma Concentration” value (Time (min) 4.0, PO 45 mg enteric-coated capsule with 500 mg CA and 100 mg LLC) was 54.31 ng/mL and 21.63 ng/mL and 32.14 ng/mL and 46.68 ng/mL and 103.81 ng/mL, the “Tigecycline Plasma Concentration” value (Time (min) 4.5, PO 30 mg enteric-coated capsule with 500 mg CA and 100 mg LLC) was 34.53 ng/mL and 61.09 ng/mL and 38.99 ng/mL and 0.00 ng/mL and 33.07 ng/mL and the “Tigecycline Plasma Concentration” value (Time (min) 4.5, PO 45 mg enteric-coated capsule with 500 mg CA and 100 mg LLC) was 58.85 ng/mL and 16.87 ng/mL and 21.77 ng/mL and 47.61 ng/mL and 99.47 ng/mL. The “Tigecycline Plasma Concentration” value (Time (min) 5.0, PO 30 mg enteric-coated capsule with 500 mg CA and 100 mg LLC) was 33.82 ng/mL and 63.28 ng/mL and 34.27 ng/mL and 0.00 ng/mL and 27.47 ng/mL, the “Tigecycline Plasma Concentration” value (Time (min) 5.0, PO 45 mg enteric-coated capsule with 500 mg CA and 100 mg LLC) was 48.38 ng/mL and 20.56 ng/mL and 33.56 ng/mL and 45.61 ng/mL and 104.91 ng/mL and the “Tigecycline Plasma Concentration” value (Time (min) 5.5, PO 30 mg enteric-coated capsule with 500 mg CA and 100 mg LLC) was 59.44 ng/mL and 34.85 ng/mL and 36.11 ng/mL and 21.10 ng/mL. For the same compound, the “Tigecycline Plasma Concentration” value (Time (min) 5.5, PO 45 mg enteric-coated capsule with 500 mg CA and 100 mg LLC) was 44.74 ng/mL and 19.45 ng/mL and 21.25 ng/mL and 50.62 ng/mL and 76.57 ng/mL, the “Tigecycline Plasma Concentration” value (Time (min) 6.0, PO 30 mg enteric-coated capsule with 500 mg CA and 100 mg LLC) was 0.00 ng/mL and 28.57 ng/mL and 36.53 ng/mL and 19.76 ng/mL and the “Tigecycline Plasma Concentration” value (Time (min) 6.0, PO 45 mg enteric-coated capsule with 500 mg CA and 100 mg LLC) was 36.76 ng/mL and 13.66 ng/mL and 13.38 ng/mL and 34.52 ng/mL and 77.87 ng/mL. The “Tigecycline Plasma Concentration” value (Time (min) 8.0, PO 30 mg enteric-coated capsule with 500 mg CA and 100 mg LLC) was 0.00 ng/mL (3×) and 18.56 ng/mL and 17.77 ng/mL, the “Tigecycline Plasma Concentration” value (Time (min) 8.0, PO 45 mg enteric-coated capsule with 500 mg CA and 100 mg LLC) was 27.89 ng/mL and 10.52 ng/mL and 6.37 ng/mL and 20.09 ng/mL and 49.82 ng/mL and the “Tigecycline Plasma Concentration” value (Time (min) 10.0, PO 30 mg enteric-coated capsule with 500 mg CA and 100 mg LLC) was 0.00 ng/mL (4×) and 12.91 ng/mL. For the same compound, the “Tigecycline Plasma Concentration” value (Time (min) 10.0, PO 45 mg enteric-coated capsule with 500 mg CA and 100 mg LLC) was 22.19 ng/mL and 0.00 ng/mL and 4.77 ng/mL and 12.09 ng/mL and 44.75 ng/mL, the “Tigecycline Plasma Concentration” value (Time (min) 24.0, PO 30 mg enteric-coated capsule with 500 mg CA and 100 mg LLC) was 0.00 ng/mL and the “Tigecycline Plasma Concentration” value (Time (min) 24.0, PO 45 mg enteric-coated capsule with 500 mg CA and 100 mg LLC) was 0.00 ng/mL.
